Data taken from PubChem BioAssay AID504467 (National Center for Advancing Translational Sciences (NCATS), 2011).
Screen size: about 330,000 compounds; about 7,700 (2.3%) were called active. Inconclusive means that the source gave no clear call. Such entries were picked first, then a sample of the others. Calls come from the whole dose curve; as a rule, active = well fitted inhibition curve with a large enough effect; inconclusive = small, poorly fitted or top-dose-only effect, or effect the other way; inactive = flat fitted curve, though single readings scatter. A potency beside an inconclusive call is a rough fit, not a confirmed value.
Potency is the fitted concentration of half-maximal effect.

Experiment: qHTS screen for small molecules that inhibit ELG1-dependent DNA repair in human embryonic kidney (HEK293T) cells expressing luciferase-tagged ELG1; note: nearly all actives have a fitted effect of over 55% in size
Details: HEK293T ELG1-luciferase reporter, luminescence, 16 h, DNA damage induced by 5-fluorouridine; series mostly up to 46.1 µM
Method in brief: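 Cells (2,000 per well) received 5-fluorouridine plus test compound or DMSO and were incubated 16 hr at 37 °C, 5% CO2. Luciferase activity was read by luminescence 30 min after ONE-Glo addition; signal suppression marked inhibition of damage-induced ELG1 function.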
In the case of `Cc1ccc(NC(=S)NNC(=O)c2cn(C)nc2C)cc1`, the Potency is reported as inconclusive: 13 µM [activator, partial curve, poor fit].
In the case of `CCCCn1c(N)c(N(CC(C)C)C(=O)c2ccc(-n3c(C)ccc3C)cc2)c(=O)[nH]c1=O`, the Potency is reported as “inactive”.
For `OCCCN1c2ccccc2Nc2nnc(-c3ccccc3)cc21`, the Potency was inconclusive: 2.31 µM [activator, full curve].
With `COc1ccc(OC)c2nc(-c3ccncc3)ccc12` the Potency was inconclusive: 18.3 µM [activator, partial curve, poor fit].
For `O=C(CSc1ccccc1)NCCc1ccc(F)cc1`, the Potency was inconclusive: 10 µM [activator, partial curve].
In the case of `C=C(C)CN(Cc1ccccc1)C(=S)Nc1ccccc1`, the Potency is reported as inconclusive: 5.62 µM [inhibitor, single point].
For `O=C(Cc1c(F)cccc1Cl)Nc1ccon1`, the Potency was “inactive”.
In the case of `O=C(c1noc2c1CCc1ccccc1-2)N1CCOCC1`, the Potency is reported as inconclusive: 23.1 µM [activator, partial curve].
For `CC(C)c1ccc(OCC(=O)Nc2ccc(S(=O)(=O)Nc3ccccn3)cc2)cc1`, the Potency was “inactive”.
With `CCOC(=O)Nc1nnc(-c2ccc(OC)c(OC)c2)s1` the Potency was “inactive”.
With `CC(=O)c1cccc(Oc2cc(NN3CCCCC3)c([N+](=O)[O-])cc2[N+](=O)[O-])c1` the Potency was “inactive”.
For `O=C(NCCN1C(=O)C2C3C=CC(C3)C2C1=O)Nc1ccccc1O` (centres undefined), the Potency was inconclusive: 18.4 µM [activator, single point].
For `COc1ccc(CNC(=O)c2ccc3c(=O)n(CCCN4CCCC4=O)c(=S)[nH]c3c2)cc1`, the Potency was inconclusive: 29.1 µM [inhibitor, single point].
For `CC(=O)Nc1ccc(-c2nnc(SCC(=O)Nc3ccc4c(c3)oc3ccccc34)n2C)cc1`, the Potency was inconclusive: 14.6 µM [activator, partial curve, poor fit].
With `C=CCC[C@@H](Cc1ccc(F)cc1)C(=O)OC[C@@H]1CCCN1C(=O)[C@@H](CC=C)CC(=O)N[C@@H](CO)Cc1ccccc1` the Potency was “inactive”.
With `Fc1ccc(-c2cc(-c3cccs3)cc(-c3ccccc3)n2)cc1` the Potency was inconclusive: 23.1 µM [activator, single point].
With `N#Cc1ccc(COc2cccc3cccnc23)cc1` the Potency was “inactive”.
In the case of `O=C(CN(c1ccc(F)cc1)S(=O)(=O)c1ccccc1)NCCSC1CCCCC1`, the Potency is reported as inconclusive: 25.9 µM [inhibitor, single point].
With `Cc1ccc(C)c(NC(=O)CCC(=O)N/N=C/c2ccc3c(c2)OCO3)c1` the Potency was “inactive”.
For `Cc1ccccc1OCc1nc2c3c(ncn2n1)-c1ccccc1CC31CCCC1`, the Potency was “inactive”.
For `Cc1ccnc(N/C=C/C(=O)c2ccc(Br)cc2)c1`, the Potency was inconclusive: 2.59 µM [activator, partial curve].
In the case of `CC(/C=C/C1[C@H](C)C[C@H](O[C@@H]2O[C@H](CO)[C@@H](O)[C@H](O)[C@H]2O)CC1(C)C)O[C@H]1O[C@H](CO)[C@@H](O)[C@H](O)[C@H]1O` (some centres undefined), the Potency is reported as inconclusive: 23.1 µM [activator, single point].
In the case of `CC(=O)c1ccc(NC(=O)c2ccc3snnc3c2)cc1`, the Potency is reported as inconclusive: 13 µM [activator, partial curve].
In the case of `Cc1[nH]c2ccccc2c1SCC(=O)O`, the Potency is reported as “inactive”.
With `COc1ccc(/C=C/C(=O)Nc2cccc(C(C)=O)c2)cc1` the Potency was inconclusive: 4.11 µM [activator, single point].
With `Cc1ccc(C(=O)OCC(=O)NCc2cccs2)c(C)c1` the Potency was inconclusive: 23.1 µM [activator, partial curve].
In the case of `CC(=O)/C(=N\Nc1ccc(Cl)cc1)Sc1nnc(-c2ccccc2)n1-c1ccccc1`, the Potency is reported as inconclusive: 25.9 µM [inhibitor, single point].
For `CC(=O)c1ccc(NC(=O)C(C)Sc2nnc(C3CCCCC3)o2)cc1` (centres undefined), the Potency was inconclusive: 18.3 µM [activator, single point].
With `COc1ccc(N/C=C\C(=O)c2ccc(Br)cc2)cc1OC` the Potency was inconclusive: 16.4 µM [activator, partial curve].
For `Cc1c(NC(=O)OCCNC(=O)COc2ccc(Cl)cc2Cl)sc(=S)n1C`, the Potency was inconclusive: 29.1 µM [inhibitor, single point].
For `O=C(c1cnn2c(C(F)F)cc(C3CC3)nc12)N1CCCC1`, the Potency was “inactive”.
In the case of `OC1(c2ccc(OC(F)F)cc2)CSC(=Nc2cccnc2)N1C1CC1` (centres undefined), the Potency is reported as inconclusive: 2.91 µM [inhibitor, partial curve, poor fit].
In the case of `Cc1cc(=O)oc2cc(OCC(=O)N/N=C/c3ccccc3O)ccc12`, the Potency is reported as “inactive”.
With `CCC(COC)NCc1cn(-c2ccc(OC)cc2)nc1-c1cccc(F)c1` (centres undefined) the Potency was inconclusive: 14.6 µM [inhibitor, partial curve].
For `CSCCNC(=O)c1ccc2nc(Cc3ccccc3F)oc2c1`, the Potency was inconclusive: 20.6 µM [activator, partial curve].
In the case of `CSc1nc2ccc(NC(=O)c3cccs3)cc2s1`, the Potency is reported as inconclusive: 3.66 µM [activator, partial curve].
For `Cc1cccc(C(c2c(C)nn(-c3ccccc3)c2N)c2c(C)nn(-c3ccccc3)c2N)c1`, the Potency was inconclusive: 20.6 µM [inhibitor, single point].
In the case of `O=C(CSc1nc2ccc(N3CCOCC3)cc2c(=O)n1CCc1ccccc1)NCC1CCCO1` (centres undefined), the Potency is reported as inconclusive: 32.6 µM [inhibitor, single point].
For `O=C(COC(=O)c1cccnc1Cl)NCC1CCCO1` (centres undefined), the Potency was “inactive”.
With `CC(C)c1ccc(COC(=O)CN2C(=O)NC3(CCCCC3C)C2=O)cc1` (centres undefined) the Potency was “inactive”.
For `Cc1cc2c(cc1S(=O)(=O)Nc1ccc(OC(F)(F)F)cc1)OCC(=O)N2`, the Potency was “inactive”.
With `CC(C)(C)OC(=O)N[C@@H](C(=O)OC(C)(C)C)c1ccccc1` the Potency was inconclusive: 11.6 µM [activator, partial curve, poor fit].
With `O=C(c1cc(S(=O)(=O)N2CCOCC2)c(Cl)cc1Cl)N1CCCCC1` the Potency was inconclusive: 29.1 µM [inhibitor, single point].
In the case of `COC(=O)c1scc(C)c1NC(=O)c1ccc(Cl)cc1`, the Potency is reported as “inactive”.
With `O=C(CSc1n[nH]c(=O)n1C1CC1)c1c[nH]c2ccccc12` the Potency was inconclusive: 25.9 µM [activator, partial curve, poor fit].
In the case of `O=C(Nc1ccc(-c2cnco2)cc1)c1ccc(Cl)cc1`, the Potency is reported as inconclusive: 16.4 µM [activator, partial curve].
With `CCN(CC)S(=O)(=O)c1ccc(C(=O)OCC(=O)NCc2ccco2)cc1` the Potency was “inactive”.
For `CCOc1ccc(N2CC(C(=O)NC3=NCCS3)CC2=O)cc1` (centres undefined), the Potency was “inactive”.
With `C/C(CC(=O)Nc1ccc(OCc2ccccc2)cc1)=N\NC(=O)C(=O)Nc1ccccc1C` the Potency was inconclusive: 20.6 µM [activator, single point].
In the case of `CCc1cccc(C)c1NC(=S)N(CCN(C)C)Cc1cccs1`, the Potency is reported as “inactive”.
In the case of `O=S1(=O)CCOCCCN1Cc1cccc(C(F)(F)F)c1`, the Potency is reported as “inactive”.
For `CCC(=O)NNc1nc2c(C)cc(C)cc2s1`, the Potency was inconclusive: 23.1 µM [activator, single point].
For `COc1ccc(CCC(=O)Nc2cnc3ccccc3c2)cc1`, the Potency was inconclusive: 11.6 µM [activator, partial curve].
For `CC(C)Oc1ccc(C(=O)Nc2nnc(SCC(=O)N3CCOCC3)s2)cc1`, the Potency was inconclusive: 0.411 µM [activator, partial curve].
With `CC(NCCC1(Cc2ccccc2Cl)CCOC(C)(C)C1)c1cccs1` (centres undefined) the Potency was inconclusive: 20.6 µM [inhibitor, single point].
In the case of `CCOc1ncccc1C(=O)Nc1cc(S(=O)(=O)N(CC)CC)ccc1N1CCOCC1`, the Potency is reported as active: 5.17 µM.
In the case of `COc1ccc(C2=Nn3c(nnc3-c3ccccc3OC)SC2)cc1OCC1CC1`, the Potency is reported as inconclusive: 29.1 µM [inhibitor, single point].
With `O=C(/C=C\c1cccs1)c1c(O)ccc2ccc(=O)oc12` the Potency was inconclusive: 29.1 µM [inhibitor, single point].
With `CCC(C)c1ccccc1NC(=O)COC(=O)c1ccc(C)c(NC(=O)c2ccco2)c1` (centres undefined) the Potency was inconclusive: 29.1 µM [inhibitor, single point].
In the case of `O=C(CCC1CCN(C(=O)c2ccccc2Cl)CC1)NCc1ccc(F)cc1`, the Potency is reported as “inactive”.
For `COCCNC(=O)CN(C(=O)c1ccc(N2CCCC2)nc1)c1ccc(Cl)cc1`, the Potency was “inactive”.
In the case of `C/C(=N\Nc1ccc([N+](=O)[O-])cc1)c1ccc(N)cc1`, the Potency is reported as inconclusive: 18.4 µM [activator, single point].
For `COc1ccc(NC(=O)N(C)C[C@H]2Oc3c(NC(=O)Nc4c(C)noc4C)cccc3C(=O)N([C@H](C)CO)C[C@@H]2C)cc1`, the Potency was inconclusive: 16.4 µM [inhibitor, partial curve, poor fit].
For `COC(=O)[C@H](Cc1ccccc1)NC(=O)c1cc(COc2c(F)cccc2F)on1`, the Potency was inconclusive: 14.6 µM [activator, partial curve].
With `CC(C)c1ccc(/C=N/NC(=O)c2nnn(-c3nonc3N)c2CSC2=NCCS2)cc1` the Potency was inconclusive: 29.1 µM [inhibitor, single point].
With `COc1c(C(CC(C)C)OC(C)=O)ccc2c1C(=O)OCc1cc(C)cc(O)c1O2` (centres undefined) the Potency was inconclusive: 29.1 µM [inhibitor, single point].
For `CCn1c(SC(C)C(=O)NCC2CCCO2)nc2scc(-c3ccccc3)c2c1=O` (centres undefined), the Potency was inconclusive: 5.17 µM [inhibitor, single point].
In the case of `Cc1onc(-c2ccccc2)c1C(=O)NC(=S)NNC(=O)c1ccco1`, the Potency is reported as active: 23.1 µM.
In the case of `Cc1nn(-c2ccccc2)cc1C(=S)Nc1ccccc1`, the Potency is reported as inconclusive: 2.59 µM [activator, full curve, poor fit].
